# Source: PMC12751014, “Non-Catalytic Inhibitors of the p38/MK2 Interface: Repurposing Approved Drugs to Target Neuroinflammation in Alzheimer’s Disease” (Journal of Medicinal Chemistry, 2025)
# Protein sequences, listed by entry. Tags and fused reporters are not part of them. Residues count along the entry.
# UniProt Q16539, 2-360 limits assumed: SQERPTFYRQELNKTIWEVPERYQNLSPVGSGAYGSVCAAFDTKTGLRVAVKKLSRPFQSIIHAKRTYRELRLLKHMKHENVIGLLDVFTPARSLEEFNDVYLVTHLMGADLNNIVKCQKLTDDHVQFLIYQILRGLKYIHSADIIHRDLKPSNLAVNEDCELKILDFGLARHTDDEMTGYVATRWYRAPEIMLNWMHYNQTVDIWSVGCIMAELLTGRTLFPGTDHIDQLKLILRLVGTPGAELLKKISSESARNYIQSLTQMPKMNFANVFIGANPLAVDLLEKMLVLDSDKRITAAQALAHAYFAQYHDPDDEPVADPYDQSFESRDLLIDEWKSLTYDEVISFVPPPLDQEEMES
# This list holds what a sample rich in strong results left over.
# Target: p38/MK2 protein–protein interaction (VF-p38α / GST-MK2) (Homo sapiens, UniProt Q16539)
# Experiment: primary screen, percent of control activity; higher = less effect of the substance
# Design: species or system HEK293T cell lysate transfected with VF-p38α and GST-MK2; unclear (methods say 'quintuplet replicates')
# Method: The TR-FRET assay was conducted in a 1536-well plate (Corning, catalog no. 3724) with HEK293T cell lysate transfected with VF-p38α and GST-MK2. Cell-lysate concentration was optimized with a titration experiment. Anti-Flag-Tb and anti-GST-d2 antibodies (Revvity, catalog no. 61FGBTLB) were used to couple p38α and MK2, respectively. A multiple-drop Combi dispenser (Thermo Scientific) combined reaction mixtures in quintuplet replicates. The TR-FRET signals were measured using a BMG Labtech PHERAstar FSX plate reader and normalized to the percent of DMSO control.
row,Structure (SMILES),Pct of control [%]
1,CN1CCCC1CCOC(C)(c1ccccc1)c1ccc(Cl)cc1.O=C(O)C=CC(=O)O (stereo not shown),88.2
2,CCCCCCCCCCCCCCCC[n+]1ccccc1.[Cl-],123
3,CN1CCN2c3ccccc3Cc3ccccc3C2C1.Cl (stereo not shown),103
4,CCC(=C(c1ccccc1)c1ccc(OCCN(C)C)cc1)c1ccccc1.O=C(O)CC(O)(CC(=O)O)C(=O)O,95
5,CCN(CC)CCOC(=O)C1(C2CCCCC2)CCCCC1.Cl,91.8
6,CC(C)(O)c1ccccc1CCC(SCC1(CC(=O)[O-])CC1)c1cccc(C=Cc2ccc3ccc(Cl)cc3n2)c1.[Na+] (stereo not shown),53.7
7,O=C(O)C=CC(=O)O.OCCOCCN1CCN(C2=Nc3ccccc3Sc3ccccc32)CC1.OCCOCCN1CCN(C2=Nc3ccccc3Sc3ccccc32)CC1,92.7
8,Clc1ccc(COC(Cn2ccnc2)c2ccc(Cl)cc2Cl)cc1.O=[N+]([O-])O (stereo not shown),99.7
9,CN(C)CCN(Cc1cccs1)c1ccccn1.Cl,88.6
10,CC(C)NCC(O)COc1cccc2ccccc12.Cl (stereo not shown),105
11,Clc1ccc2c(c1)CCc1cccnc1C2=C1CCNCC1,85.4
12,CNCCCC12CCC(c3ccccc31)c1ccccc12.Cl,91.2
13,CN1CCN(CCCN2c3ccccc3Sc3ccc(Cl)cc32)CC1.O=C(O)C=CC(=O)O.O=C(O)C=CC(=O)O,83.3
14,CN(C)CCOC(c1ccccc1)c1ccccc1.Cl,101
15,CSc1ccc2c(c1)N(CCC1CCCCN1C)c1ccccc1S2.Cl (stereo not shown),91.3
16,CN(C)CCCN1c2ccccc2CCc2ccc(Cl)cc21.Cl,95.5
17,CNCCC(Oc1ccc(C(F)(F)F)cc1)c1ccccc1.Cl (stereo not shown),97.7
18,Clc1ccc(CSC(Cn2ccnc2)c2ccc(Cl)cc2Cl)cc1.O=[N+]([O-])O (stereo not shown),94.2
19,CCCCc1oc2ccccc2c1C(=O)c1cc(I)c(OCCN(CC)CC)c(I)c1.Cl,92.6
20,CN1CCC(=C2c3ccccc3C=Cc3ccccc32)CC1.Cl,87.8
21,CN1C2CCC1CC(OC(c1ccccc1)c1ccccc1)C2.CS(=O)(=O)O (stereo not shown),87.2
22,CNC1CCC(c2ccc(Cl)c(Cl)c2)c2ccccc21.Cl (stereo not shown),86.9
23,CCN(CC)CCOc1ccc(C(=C(Cl)c2ccccc2)c2ccccc2)cc1.O=C(O)CC(O)(CC(=O)O)C(=O)O,97.6
24,Cl.Cl.Fc1ccc(C(c2ccc(F)cc2)N2CCN(CC=Cc3ccccc3)CC2)cc1,91.4
25,Cc1ccccc1C(OCCN(C)C)c1ccccc1.O=C(O)CC(O)(CC(=O)O)C(=O)O (stereo not shown),85.6
